{"source": "PubChem BioAssay AID1259331 (Drosophila RNAi Screening Center, 2017)", "purpose": "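Knock-downs that alter ATP level after a high zinc chloride dose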 (primary screen)", "system": "Drosophila S2R+ cells", "reagents": "long dsRNA against Drosophila genes", "time to read-out": "5 days (4 days knock-down, then 1 day zinc)", "conditions": "zinc chloride at 15 mM final level for 1 day", "measurement": "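Luminescent ATP assay standing in for viability; Z score is the mean over three replicate plates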", "scale": "mean Z score: higher = more ATP than other wells, better survival under zinc; ATP luminescence: higher = more ATP, more viable cells", "active means": "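Hit when the absolute Z score is greater than 1.5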", "calls": "active = hit, ATP up or down; inactive = not a hit", "note": "In all, the deposit lists about 3,100 reagents; shown is an unselected part. Over the whole deposit, 126 (4.1%) are marked active. 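Calls are per reagent; zinc was so toxic that few knock-downs lowered ATP further, so most hits raise ATP.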 Raw values vary from plate to plate and are shown uncorrected. Unmarked entries are inactive. The numbers tell different reagents against one gene apart. Names joined by + are all predicted targets of the reagent. The record does not give: the amount of reagent."}
{"predicted target": "Zip42C.2", "reagent": 1, "mean Z score": -0.151, "ATP luminescence, replicate 1": 80388, "ATP luminescence, replicate 2": 67715}
{"predicted target": "Zip42C.2", "reagent": 2, "mean Z score": "1.67 (active)", "ATP luminescence, replicate 1": 52116, "ATP luminescence, replicate 2": 99277}
{"predicted target": "Or85a", "reagent": 1, "mean Z score": -0.237, "ATP luminescence, replicate 1": 35925, "ATP luminescence, replicate 2": 53687}
{"predicted target": "CG31663", "reagent": 1, "mean Z score": -0.0678, "ATP luminescence, replicate 1": 39182, "ATP luminescence, replicate 2": 50748}
{"predicted target": "CG31663", "reagent": 2, "mean Z score": 0.832, "ATP luminescence, replicate 1": 69773, "ATP luminescence, replicate 2": 66034}
{"predicted target": "CG31663", "reagent": 3, "mean Z score": -0.348, "ATP luminescence, replicate 1": 41188, "ATP luminescence, replicate 2": 36507}
{"predicted target": "CG31663", "reagent": 4, "mean Z score": -0.19, "ATP luminescence, replicate 1": 43691, "ATP luminescence, replicate 2": 42645}
{"predicted target": "Octalpha2R", "reagent": 1, "mean Z score": 0.578, "ATP luminescence, replicate 1": 35822, "ATP luminescence, replicate 2": 66548}
{"predicted target": "Octalpha2R", "reagent": 2, "mean Z score": -0.336, "ATP luminescence, replicate 1": 36096, "ATP luminescence, replicate 2": 54030}
{"predicted target": "CG34135 + CG11768", "reagent": 1, "mean Z score": 0.734, "ATP luminescence, replicate 1": 74781, "ATP luminescence, replicate 2": 81722}
{"predicted target": "CG34135 + CG11768", "reagent": 2, "mean Z score": -0.369, "ATP luminescence, replicate 1": 41846, "ATP luminescence, replicate 2": 36755}
{"predicted target": "iav", "reagent": 1, "mean Z score": -0.143, "ATP luminescence, replicate 1": 61507, "ATP luminescence, replicate 2": 56828}
{"predicted target": "iav", "reagent": 2, "mean Z score": -0.504, "ATP luminescence, replicate 1": 58248, "ATP luminescence, replicate 2": 46125}
{"predicted target": "GC", "reagent": 1, "mean Z score": -0.0998, "ATP luminescence, replicate 1": 68795, "ATP luminescence, replicate 2": 74558}
{"predicted target": "GC", "reagent": 2, "mean Z score": 0.216, "ATP luminescence, replicate 1": 59963, "ATP luminescence, replicate 2": 65246}
{"predicted target": "PGRP-LC", "reagent": 1, "mean Z score": -0.227, "ATP luminescence, replicate 1": 30473, "ATP luminescence, replicate 2": 48114}
{"predicted target": "PGRP-LC", "reagent": 2, "mean Z score": 0.0673, "ATP luminescence, replicate 1": 77662, "ATP luminescence, replicate 2": 62278}
{"predicted target": "PGRP-LC", "reagent": 3, "mean Z score": -0.27, "ATP luminescence, replicate 1": 72539, "ATP luminescence, replicate 2": 57682}
{"predicted target": "PGRP-LC", "reagent": 4, "mean Z score": -0.823, "ATP luminescence, replicate 1": 45016, "ATP luminescence, replicate 2": 52463}

Entries listed so far whose gene name begins with C or c:
{"predicted target": "CG31663", "reagent": 1, "mean Z score": -0.0678, "ATP luminescence, replicate 1": 39182, "ATP luminescence, replicate 2": 50748}
{"predicted target": "CG31663", "reagent": 2, "mean Z score": 0.832, "ATP luminescence, replicate 1": 69773, "ATP luminescence, replicate 2": 66034}
{"predicted target": "CG31663", "reagent": 3, "mean Z score": -0.348, "ATP luminescence, replicate 1": 41188, "ATP luminescence, replicate 2": 36507}
{"predicted target": "CG31663", "reagent": 4, "mean Z score": -0.19, "ATP luminescence, replicate 1": 43691, "ATP luminescence, replicate 2": 42645}
{"predicted target": "CG34135 + CG11768", "reagent": 1, "mean Z score": 0.734, "ATP luminescence, replicate 1": 74781, "ATP luminescence, replicate 2": 81722}
{"predicted target": "CG34135 + CG11768", "reagent": 2, "mean Z score": -0.369, "ATP luminescence, replicate 1": 41846, "ATP luminescence, replicate 2": 36755}
